Reference: the supplement of paper PMC3334620
The full ranking holds about 33,000 sequences; the median of “E-score (-0.5 to 0.5)” is about -0.016, and the highest 2% start at about 0.3. The list shows a part of the results.

target: T1, Yer184c (UniProt P39961); assay: PBM E-score (8-mer binding enrichment) (E-score (-0.5 to 0.5)); higher = stronger / more preferred TF binding; conditions: protein concentration: 100 nM; construct: GST-full length
T1 sequence: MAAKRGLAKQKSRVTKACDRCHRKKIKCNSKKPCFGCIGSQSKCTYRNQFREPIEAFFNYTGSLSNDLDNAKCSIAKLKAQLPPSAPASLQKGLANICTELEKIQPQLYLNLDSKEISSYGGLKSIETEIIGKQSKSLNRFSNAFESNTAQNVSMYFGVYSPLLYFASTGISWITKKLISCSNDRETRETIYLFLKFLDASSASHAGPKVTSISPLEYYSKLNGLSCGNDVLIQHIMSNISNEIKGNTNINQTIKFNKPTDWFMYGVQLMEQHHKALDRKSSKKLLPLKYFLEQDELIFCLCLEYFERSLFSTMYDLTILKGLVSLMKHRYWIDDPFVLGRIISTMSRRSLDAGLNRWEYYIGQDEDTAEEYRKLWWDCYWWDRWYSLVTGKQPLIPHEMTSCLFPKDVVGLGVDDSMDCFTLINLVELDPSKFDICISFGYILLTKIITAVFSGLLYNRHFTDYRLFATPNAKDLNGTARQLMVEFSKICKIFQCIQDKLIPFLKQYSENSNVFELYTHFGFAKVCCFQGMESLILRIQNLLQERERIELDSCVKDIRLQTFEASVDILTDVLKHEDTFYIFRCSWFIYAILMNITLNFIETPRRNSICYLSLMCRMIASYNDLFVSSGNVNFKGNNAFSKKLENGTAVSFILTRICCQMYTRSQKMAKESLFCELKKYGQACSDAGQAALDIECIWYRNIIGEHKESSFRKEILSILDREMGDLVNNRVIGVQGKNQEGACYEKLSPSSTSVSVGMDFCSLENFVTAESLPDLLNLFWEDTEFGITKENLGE
In short: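 Universal all-10-mer Agilent arrays, double-stranded by primer extension on fresh or once-stripped slides, were probed with about 100-200 nM GST-tagged yeast transcription factors made by PURExpress. Fluorescent anti-GST detected bound protein, and masliner normalised the scans. E-scores from the Universal PBM Analysis Suite were given to each ungapped eight-base word pooled with its reverse complement.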

Sequence	PBM E-score
AACATACA	0.122
GTAGGCAA	-0.151
AGAGGCTA	-0.234
ACGTCGTG	-0.08
CCCCACAG	-0.395
GATCTACC	-0.0369
CCAGCTTC	-0.0253
CGCACTAC	0.0422
CCCCTACG	-0.32
CACGGTAG	-0.083
CAAGGATA	-0.0105
ACCACTTG	-0.0241
GTCGTTAA	0.183
AGCCCCTC	-0.186
CCCAAAAC	0.121
CATTATGA	-0.112
CACTAGTG	0.00908
AGACGGGG	-0.159
CTGAATAA	0.134
TAATTATA	0.322
GGCGAAGA	-0.0125
GAGTATGA	0.0948
ACTATTGA	0.142
TCCGATAA	0.22
AGTGGATA	0.00091

Sequence	PBM E-score
GACGGATA	0.125
ATCGCTTA	-0.159
CGGGGGAG	-0.281
TGCACTAA	0.18
AGATTCGG	0.294
AGCACATC	0.0173
ACAAGACC	-0.0478
AAGTAGAA	0.0158
ACCAGGAG	-0.1
CGAAATAG	0.214
CTCGAAGC	0.00029
TCTGCGCA	-0.0569
CTCATAAG	0.0608
AGAGGTAC	-0.254
GACGAAGC	0.0181
GGAACGAC	-0.0886
CATCCCCC	-0.356
CGTCCGAC	-0.0398
ATATAGTA	0.0216
CTAATAGA	0.196
GCCGCGAA	-0.0654
ACATGAGT	-0.154
ACTTGAGC	-0.236
GATTTTAC	0.123
AATTCCTC	0.0149

Sequence	PBM E-score
CCTATATC	-0.0566
GTCGTGGA	-0.0984
ACCAAGGA	-0.0323
ATCGGGGC	-0.157
ACTCTCCC	0.0647
AATAGACT	-0.0293
ATAACCCC	-0.243
CAGTACTA	0.0892
CCGTGTAC	0.0859
CTTCCATC	0.0108
ATCAGTTG	-0.102
GATCTTGC	0.0396
CGACCAGA	-0.106
ATCGCACG	-0.143
GAGCGATC	-0.121
TCGGCAAA	0.239
AAGCGCGA	-0.0153
GACATAGC	0.078
AATCCACA	-0.0138
CCGTCAAC	0.0224
AGGTTGGG	-0.184
CACCCCAG	-0.251
TCACCCCA	-0.0252
AGTATGAC	0.0364
AATATCCA	0.17

Sequence	PBM E-score
CCGTGATA	0.147
AAAATGTG	-0.0563
GAGTGGAC	-0.109
GCGATGAC	-0.147
ATATAGAT	0.236
GTCGTGTA	0.0195
AACCCACG	-0.244
TAGCGTCA	-0.223
CAGCCCCG	-0.133
CCATAGCC	-0.0766
CCGGCCGA	0.431
CACTCTTC	-0.0607
ATCGGCAT	0.267
GTTAATGA	0.126
AAGACATC	-0.263
CGACAGCC	-0.1
CACGCAGG	-0.0695
ATAGCTGA	-0.0194
GATTTCCA	0.0816
ACCCTCAC	-0.152
AAACCAGG	-0.178
CGCACCTC	-0.103
GGAAGATA	0.0905
AAGCTAGA	-0.0135
CAGTTGCA	-0.0676

Sequence	PBM E-score
CATGTTAC	-0.0321
GTAGCAAA	0.0314
CGTAAAAC	0.0466
GTAGCCTA	-0.284
CGACATTA	0.221
GTAGCGAC	-0.241
GCATTGAA	0.203
AGCCAGAC	-0.0475
GGCCTAGA	-0.258
AGGTAGTC	-0.205
ACTCTGAC	-0.106
ATGATTTC	0.161
GGTCCATA	-0.186
ATCCTGGA	-0.0345
GTGAAACA	0.0428
CCCCCAGG	-0.345
AATGGCGT	-0.118
AAATTCCC	-0.0964
AAATGTCC	0.00053
GCGCTACA	0.0339
GGGGGATA	-0.291
AAGTAAGA	-0.147
AAGGCACG	-0.0497
GACAGGAC	-0.0187
ACTCATCG	-0.0499

Sequence	PBM E-score
CGTGTCCC	-0.00254
GGCCAGGA	-0.174
CATCTTTC	0.0475
ACACCCAT	-0.152
GCTAACGA	0.0862
CATAAATG	-0.119
AACTTACA	-0.0611
CTTAGCGA	0.0683
GCGTTGCC	-0.0447
GACCATTA	0.0247
ACTTACAC	-0.152
AGCGCCTG	-0.113
CAATGTCG	-0.0173
AATGAGTC	-0.126
TACCGAAA	0.204
CCTTACAC	-0.17
TACACAGA	-0.0325
AACAAGCG	0.0886
ATGCTTAG	-0.101
AAGAAGCT	0.179
GATAGGCA	-0.103
CAAACTCC	0.125
TGAGCTAA	0.0351
AGAGACAA	-0.00864
AACATGGT	-0.165

Sequence	PBM E-score
GGAGCTAA	-0.00462
CGCGTGAA	0.215
ATGGTCAG	0.0701
TATGAAAA	0.178
GAACTGGA	0.188
AGGATTAA	0.0521
GGACGCCA	-0.224
GCCGACCA	0.0382
CATAGGGG	-0.368
CGAGCCGC	0.251
ATCCTAAC	0.0876
AGGTAAGG	-0.226
ACAAATGA	0.0261
AGACTACT	0.0561
CTCCTAAA	-0.284
CAATATTA	0.133
TAGGAAAA	-0.0497
ACCGCTTA	-0.144
AATGAAGC	0.0451
CCCTGTCC	-0.316
GACTTGAC	0.00358
CCGTCTTA	0.00478
AATCCCCC	-0.307
GCGGCAAA	0.107
ATGTAATC	-0.0318

Sequence	PBM E-score
AATCGCTG	-0.00297
CGAATGTA	-0.151
CAGCAAGA	0.0971
CGCCATTA	-0.174
CTGCAAAC	-0.0687
AGAGATTG	0.0519
AGAGCTGA	-0.155
ATTGTTCC	0.267
AGGCGGAG	0.0329
AGTCGGCA	0.142
GCGCAGCC	-0.0557
AAGCTCGG	0.303
CACACGTC	-0.199
AAGTCACT	-0.144
ACTCCCGG	0.244
CAGATGTC	0.0249
AACGGAGC	-0.0449
GGCTGCCA	-0.0759
CCCCGTAC	-0.345
ACCCATGC	-0.15
TCATCAGA	-0.159
AGACACCG	-0.0308
GGTGGTAC	-0.151
TATTTCGA	0.278
AACCAACG	-0.0237

Sequence	PBM E-score
GATGGAGA	-0.0873
CCTCCCTA	-0.303
CTCAGCTC	-0.11
ATGACAGC	-0.0608
GAGGAAGC	-0.125
CTCTACCC	-0.28
ACGGGGCC	-0.206
CTCGATCC	0.00106
CTTTAAGC	0.168
AATACTAG	0.0947
CGACCAAC	0.0262
AAGATCTC	0.0449
GGGAACAC	0.221
GTGGAAAA	-0.0506
GTGCGAAA	0.0385
AGACCACG	-0.274
AAACAAGA	0.145
AGGACTTC	-0.00503
AGCAGCGC	-0.177
GGTGAGTA	-0.154
CAAAACCC	0.0404
AGTAGCAA	0.136
CGCGCCAC	-0.195
AGACCCAA	-0.134
CCAGCGTC	-0.238

Some values from the list.
Entry of CCAGCGTC under PBM E-score: -0.238
Entry of AGACCCAA under PBM E-score: -0.134
Entry of GATGGAGA under PBM E-score: -0.0873
Entry of CTTTAAGC under PBM E-score: 0.168

Next part:

Sequence	PBM E-score
CACTCATC	-0.0372
GACAATGC	0.0484
GAGATCCA	-0.00309
CGCGATCC	0.0446
TAGTTATA	0.0764
ACACGAAA	0.126
GTCAATTA	0.0244
ACGGTGCG	0.0873
GGCAACAA	0.029
AGAGATTC	0.0419
AGATCTGG	-0.239
AATTCCGA	0.389
GTCACTGA	-0.0419
CATCTTCG	0.109
TATTGTCA	0.107
ATTCTGAG	0.0545
ATTTCACA	0.114
ACATGCCT	-0.0851
ACCGCCGA	0.263
CTTACAAA	0.181
ACGTCTAC	-0.263
CCAGAGCG	-0.253
AAATCCCC	-0.298
CTAACTAA	0.0559
AGCCTGAA	-0.0147

Three entries from above, comma-delimited.
Sequence,PBM E-score
TAGTTATA,0.0764
TATTGTCA,0.107
CCAGAGCG,-0.253

(list continues)

Sequence	PBM E-score
ATGCTCGC	-0.082
AACTTGGC	-0.0881
GTGGGCAA	-0.188
AAGTCGCC	-0.0835
CAGGCAAA	0.0666
GCGCTAAC	0.142
CCTGGACC	-0.164
ACCCCACG	-0.274
ATCGGAAC	0.291
AACGCCTA	-0.149
ACACACTC	-0.0517
CATGAATA	-0.179
ATCACACA	0.0284
CATCGACA	-0.0913
AAGTGTGG	0.0318
AGTCCTCG	-0.167
AGGCCTGC	-0.163
GGAGCGGA	0.0206
ACCCCGAG	0.0399
CGGGAACG	0.0157
ACTCCCTC	-0.237
ACTGACGG	-0.165
ACCATTGG	-0.0691
GACGCATA	0.0516
GACGTACA	-0.00237

Sequence	PBM E-score
GTTTCAGA	0.0364
ACCCAAGA	-0.124
AGCGAGCC	0.0799
AGAGAGTC	-0.246
CCGTCGGC	0.225
CAACCCGG	0.0605
TGATCAAA	0.00122
ATAGTAAA	0.0797
GAAATAGC	0.166
AACCGCCA	-0.161
CCAGTCAC	-0.244
CTGCGGCA	0.0669
CGTTACCC	-0.104
ATGCTAAC	-0.106
ACTCCGAC	0.194
CCACCTAA	-0.111
AGACCGCT	-0.0165
CTCAGAAG	-0.0924
CATAACAA	0.215
ACGGGTGG	-0.261
AAAATTGC	0.00018
CATCGAGA	-0.0427
ATGGTTCC	0.17
CAATGGTG	-0.322
CAACTTGC	-0.253

Sequence	PBM E-score
GTGGGAGA	-0.281
CGACCGAG	0.238
AAAATGTC	0.12
CGCGCACA	0.112
AGCTCTGG	-0.169
CCTACACA	-0.00136
ACCCATCG	-0.162
TCAGCTGA	0.115
ACTTTGCG	-0.0587
ATGAGCAG	-0.0805
ACCATCCG	0.0482
ATGCCGGG	0.244
ACGGTAGA	-0.0773
AGACAACG	0.029
CGGATGAG	0.171
AATTATAC	0.283
AAAAGAGA	-0.0282
ACACATAT	0.00024
CACTAAGG	-0.0433
CTGAGGTA	0.0423
CAATGACC	-0.195
GCGTGATA	-0.029
CATTGTTC	0.0837
GCTATTGA	-0.0333
AAAGTGCC	-0.13

Sequence	PBM E-score
AATAGCCG	0.229
ACTTCATA	-0.0295
ACAGTGCA	0.1
CACGGATA	0.332
GTTGCTTA	9e-05
AACTTTGC	0.0603
CGAGTTTA	0.109
AACATCCG	0.381
GCGTGTTA	-0.201
CCACTTTA	-0.176
CCAAATTA	0.134
AAACCGAA	0.233
CCCTAACG	-0.0118
ACCATCGC	0.0808
ACTTTTGA	0.0708
ACAATACG	0.0985
CGACTTCA	0.029
ACACACTG	-0.139
ACTGCAAG	-0.18

Pulled one by one from above (four):
Sequence	PBM E-score
AAGAAGCT	0.179
CCACCTAA	-0.111
ACCACTTG	-0.0241
CCCCGTAC	-0.345
